The target of test [1] is T1, GST-Slp1 (UniProt Q99N80).
T1 sequence: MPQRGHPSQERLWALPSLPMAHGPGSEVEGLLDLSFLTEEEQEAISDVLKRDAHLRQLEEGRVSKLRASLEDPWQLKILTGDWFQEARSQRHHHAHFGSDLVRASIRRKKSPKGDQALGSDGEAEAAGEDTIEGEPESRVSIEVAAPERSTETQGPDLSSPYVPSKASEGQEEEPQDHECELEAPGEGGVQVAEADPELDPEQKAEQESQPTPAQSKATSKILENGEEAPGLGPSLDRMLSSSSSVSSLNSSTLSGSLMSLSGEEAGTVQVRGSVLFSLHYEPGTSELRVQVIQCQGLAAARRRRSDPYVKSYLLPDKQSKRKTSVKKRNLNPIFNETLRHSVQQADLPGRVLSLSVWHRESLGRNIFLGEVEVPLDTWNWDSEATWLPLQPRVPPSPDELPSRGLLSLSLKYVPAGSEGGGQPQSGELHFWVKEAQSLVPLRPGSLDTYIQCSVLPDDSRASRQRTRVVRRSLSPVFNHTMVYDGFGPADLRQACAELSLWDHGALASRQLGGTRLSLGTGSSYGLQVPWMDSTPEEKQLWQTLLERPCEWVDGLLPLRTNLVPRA
The experiment in a line: pull-down; his6-Rab27a loaded with GTPγS, incubated with GST fusion proteins and glutathione-Sepharose 20 min at room temperature in Buffer A with CHAPS and 0.5 mM GTPγS; immunoblot for Rab27a and GST; both purified. Background: A western blot detects proteins with antibodies after separation by electrophoresis.

For test [2], the target named is T1, GST-Slp1. The experiment in a line: pull-down; effector pull-down: 25 µg PNS of melan-INK4a cells (treated with NT, ATP1a1 and/or R3G siRNA) with 20 µM GST or GST-Slp1 and glutathione-Sepharose, 45 min room temperature, Buffer A; immunoblot for Rab27a and GST; only the target purified.

In article PMC4106853 one finds binding data, which are given here for two molecules.

Results are given in words; binding and its absence hold for the method and conditions named. For some assays here: In cells and extracts the contact can be indirect. Some binding calls cover weakened binding; strength is not graded here. Tags and fused reporters may be left off the sequences shown.

B1: his6-Rab27a^WT (protein, UniProt P23640 1-221)
chain: MSDGDYDYLIKFLALGDSGVGKTSVLYQYTDGKFNSKFITTVGIDFREKRVVYRANGPDGTVGRGQRIHLQLWDTAGQERFRSLTTAFFRDAMGFLLLFDLTNEQSFLNVRNWISQLQMHAYCENPDIVLCGNKSDLEDQRAVKEEEARELAEKYGIPYFETSAANGTNISQAIEMLLDLIMKRMERCVDKSWIPEGVVRSNGHTSTDQLSEEKEKGLCGC
In the case of B1, the binding entry in test [1] is “binds”.

B2: native Rab27a from melanocyte lysates (protein, UniProt Q9ERI2 1-221)
chain: MSDGDYDYLIKFLALGDSGVGKTSVLYQYTDGKFNSKFITTVGIDFREKRVVYRANGPDGAVGRGQRIHLQLWDTAGQERFRSLTTAFFRDAMGFLLLFDLTNEQSFLNVRNWISQLQMHAYCENPDIVLCGNKSDLEDQRAVKEEEARELAEKYGIPYFETSAANGTNISHAIEMLLDLIMKRMERCVDKSWIPEGVVRSNGHTSADQLSEEKEKGLCGC
B2: in test [2], the binding result was “binds”.
